Molecules are shown by their SMILES. Values joined by “and” are separate entries in the source; they are usually repeats but may differ in a detail not shown here. Identical values can stand only once. The list shows a part of the results. Single wells; the ratio to wells without odorant was worked out here, and repeats agree poorly.

Chains of the proteins cited; added tags and fusions are not shown. A line that says so, or that is headed by a name, gives the form on record, which may keep a tag or linker.
OR11H13, as listed by the source: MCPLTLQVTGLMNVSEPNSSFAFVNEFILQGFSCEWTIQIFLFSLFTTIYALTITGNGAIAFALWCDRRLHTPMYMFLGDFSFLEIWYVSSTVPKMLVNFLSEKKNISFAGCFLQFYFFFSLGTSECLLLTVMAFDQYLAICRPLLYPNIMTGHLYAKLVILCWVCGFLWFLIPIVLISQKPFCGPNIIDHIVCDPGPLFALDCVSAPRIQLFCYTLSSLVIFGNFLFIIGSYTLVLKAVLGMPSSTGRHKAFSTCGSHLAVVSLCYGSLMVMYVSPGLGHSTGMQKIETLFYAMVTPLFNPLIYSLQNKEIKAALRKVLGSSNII

One experiment deals with OR11H13 clone 1435. The experiment in a line: odorant receptor activation (CRE luciferase / Renilla) (fold of no-odor wells); higher = more activation. To be noted: 100 µM.
In turn, `CCC(C)=O` [2-butanone] showed an odorant receptor activation of 1.38.

For `CS` [methanethiol], the odorant receptor activation is 1.1.

In turn, `CCCCOC(C)=O` [butyl acetate] gave an odorant receptor activation of 0.174.

Consider `CCOc1cc(C=O)ccc1O` [ethyl vanillin], for which the odorant receptor activation is 1.3 and 1.19.

In another experiment the test system is OR11H4 clone 1263. The description is as above. To be noted: 100 µM.
`CCC(C)=O` [2-butanone] registered an odorant receptor activation of 1.08.

The compound `CS` [methanethiol] showed an odorant receptor activation of 0.91.

Compound `CCCCOC(C)=O` [butyl acetate] yielded an odorant receptor activation of 0.796.

`CCOc1cc(C=O)ccc1O` [ethyl vanillin]: the odorant receptor activation is 1.5 and 1.06.

The next experiment concerns OR11H4 clone 1423. Described as above. To be noted: 100 µM.
As to `CCC(C)=O` [2-butanone], the odorant receptor activation amounted to 1.09.

`CS` [methanethiol] gave an odorant receptor activation of 1.08.

In the case of `CCCCOC(C)=O` [butyl acetate], the odorant receptor activation came to 0.138.

On to `CCOc1cc(C=O)ccc1O` [ethyl vanillin], for which the odorant receptor activation is 0.971 and 1.31.

A further experiment relates to OR11H6 clone 1275. Described as above. To be noted: 100 µM.
In the case of `CCC(C)=O` [2-butanone], the odorant receptor activation amounted to 0.93.

The compound `CS` [methanethiol] gave an odorant receptor activation of 0.923.

Turning to `CCCCOC(C)=O` [butyl acetate], the odorant receptor activation stood at 0.791.

For the next experiment, the system named is OR11L1 G108S/F117L/A142T/R171P clone 1031. The description is as above. The note with it: 100 µM.
`CCC(C)=O` [2-butanone] registered an odorant receptor activation of 3.57.

`CS` [methanethiol]: the odorant receptor activation came out at 1.05.

On to `CCCCOC(C)=O` [butyl acetate], for which the odorant receptor activation was found to be 1.07.

Turning to `CCOc1cc(C=O)ccc1O` [ethyl vanillin], the odorant receptor activation was 1.11 and 1.02.

The test system of the next experiment is OR12D2 V47F/L56P/S104F/F113L/L120R/V159I clone 1373. The description is as above. The note with it: 100 µM.
The compound `CCC(C)=O` [2-butanone] registered an odorant receptor activation of 0.283.

In turn, `CS` [methanethiol] registered an odorant receptor activation of 1.1.

In turn, `CCCCOC(C)=O` [butyl acetate] displayed an odorant receptor activation of 0.203.

As to `CCOc1cc(C=O)ccc1O` [ethyl vanillin], the odorant receptor activation is 0.949 and 1.34.

Another experiment concerns OR12D2 clone 1075. Described as above. The note with it: 100 µM.
Compound `CCC(C)=O` [2-butanone] gave an odorant receptor activation of 2.04.

Compound `CS` [methanethiol] had an odorant receptor activation of 1.03.

As to `CCCCOC(C)=O` [butyl acetate], the odorant receptor activation came out at 1.3.

For `CCOc1cc(C=O)ccc1O` [ethyl vanillin], the odorant receptor activation is 0.755 and 0.898.

A further experiment relates to OR12D3 clone 1071. Described as above. The note with it: 100 µM.
For `CCC(C)=O` [2-butanone], the odorant receptor activation was 4.63.

`CS` [methanethiol]: the odorant receptor activation is 1.25.

On to `CCCCOC(C)=O` [butyl acetate], for which the odorant receptor activation was determined as 1.11.

Regarding `CCOc1cc(C=O)ccc1O` [ethyl vanillin], the odorant receptor activation is 1.04 and 1.05.

The test system of another experiment is OR13A1 clone 1107. The description is as above. The note with it: 100 µM.
`CCC(C)=O` [2-butanone] gave an odorant receptor activation of 11.6.

`CS` [methanethiol] had an odorant receptor activation of 1.39.

`CCCCOC(C)=O` [butyl acetate]: the odorant receptor activation was 1.19.

For `CCOc1cc(C=O)ccc1O` [ethyl vanillin], the odorant receptor activation was 1.11 and 1.25.

Another experiment relates to OR13C2 clone 1717. Described as above. To be noted: 100 µM.
The compound `CCC(C)=O` [2-butanone] registered an odorant receptor activation of 0.618.

On to `CS` [methanethiol], for which the odorant receptor activation is 0.701.

`CCCCOC(C)=O` [butyl acetate] displayed an odorant receptor activation of 0.611.

Consider `CCOc1cc(C=O)ccc1O` [ethyl vanillin], for which the odorant receptor activation was determined as 0.762.

The values are drawn from the odorant receptor screen of Mainland et al. (2015).
